Publication PMC5319029
No constants are given. Whether binding was seen depends on the method and setting. For some of these results: A result given as binding can be weak or reduced; the word gives no strength. For some of these results: Tags and fused reporters may be left off the sequences shown. For some of these results: Binding seen in cells or lysates may run through a third protein.

Experiments:
[1] = biological target: T1, AIM2 of THP-1-derived macrophages (human (endogenous in THP-1)) (UniProt O14862); assay: co-IP; THP-1-derived macrophages (PMA) infected with HCMV AD169 for 24 h; lysate precipitated with anti-AIM2 antibody and protein A/G beads, blotted with anti-pUL83 and anti-AIM2
T1 sequence: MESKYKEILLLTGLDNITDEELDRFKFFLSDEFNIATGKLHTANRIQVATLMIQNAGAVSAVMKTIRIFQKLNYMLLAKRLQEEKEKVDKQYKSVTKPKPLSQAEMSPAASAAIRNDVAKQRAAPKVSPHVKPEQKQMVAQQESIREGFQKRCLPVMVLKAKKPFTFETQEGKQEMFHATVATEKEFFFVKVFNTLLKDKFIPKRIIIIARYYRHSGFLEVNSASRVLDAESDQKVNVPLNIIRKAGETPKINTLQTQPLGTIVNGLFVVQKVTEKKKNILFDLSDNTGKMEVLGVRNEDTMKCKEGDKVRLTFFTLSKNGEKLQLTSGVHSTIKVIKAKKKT

[2] = biological target: T1, AIM2 of THP-1-derived macrophages (human (endogenous in THP-1)); assay: co-IP; THP-1-derived macrophages (PMA) infected with HCMV AD169 for 6 h or 12 h; lysate precipitated with anti-AIM2 antibody and protein A/G beads, blotted with anti-pUL83 and anti-AIM2
[3] = biological target: T2, recombinant AIM2 fused to VP16 AD (AD-AIM2) (human) (UniProt O14862); assay: co-IP; HEK293T cells co-transfected with pM-UL83 and pVP-AIM2 for 72 h; lysis in 50 mM HEPES pH 7.4, 250 mM NaCl, 0.1% NP-40, 2 mM EDTA, 10% glycerol; precipitated with anti-AIM2 antibody and protein A/G beads, blotted with anti-pUL83; IgG as negative control
T2 sequence: T1 sequence

[4] = biological target: recombinant pUL83 fused with Gal4 DNA BD (BD-pUL83) (HCMV AD169 strain); assay: two-hybrid; mammalian two-hybrid (Matchmaker Mammalian Assay Kit) in HEK293T cells co-transfected with pM-UL83 (bait), pVP-AIM2 (prey) and pG5SEAP; SEAP in the culture supernatant 72 h after transfection, chemiluminescence

For “pUL83 of HCMV AD169 in infected THP-1-derived macrophages”, the binding [1] was “no binding (only 24 h post infection)” and the binding [2] was “binds”.

With “recombinant pUL83 fused with Gal4 DNA BD (BD-pUL83) (HCMV AD169 strain)” the binding [3] was “binds”.

B1: recombinant AIM2 fused to VP16 AD (AD-AIM2) (protein, UniProt O14862 1-343)
chain: T1 sequence
B1 was tested, and the binding [4] was “binds”.
